Assay results from paper PMC11992055, “Identification of RING E3 pseudoligases in the TRIM protein family” (Nature Communications, 2025).
No constants are given. Whether binding was seen depends on the method and setting. For some assays here: Binding seen in cells or lysates may run through a third protein. Some results given as binding are weak or reduced against the parent protein; the word gives no strength. For some assays here: Tags and fused reporters may be left off the sequences shown.

Legend:
FLAG-TRIM49 (human) = biological target: T1, FLAG-TRIM49 (human) (UniProt P0CI25); experiment: co-IP; FLAG-tagged and GFP-tagged TRIMs co-expressed in HEK293T; lysis in 0.5% IGEPAL, 150 mM NaCl, 50 mM Tris-HCl pH 7.5, 5 mM MgCl2; anti-FLAG or anti-GFP cross-linked to Protein A/G beads, 2 h 4 °C; western blotting
T1 sequence: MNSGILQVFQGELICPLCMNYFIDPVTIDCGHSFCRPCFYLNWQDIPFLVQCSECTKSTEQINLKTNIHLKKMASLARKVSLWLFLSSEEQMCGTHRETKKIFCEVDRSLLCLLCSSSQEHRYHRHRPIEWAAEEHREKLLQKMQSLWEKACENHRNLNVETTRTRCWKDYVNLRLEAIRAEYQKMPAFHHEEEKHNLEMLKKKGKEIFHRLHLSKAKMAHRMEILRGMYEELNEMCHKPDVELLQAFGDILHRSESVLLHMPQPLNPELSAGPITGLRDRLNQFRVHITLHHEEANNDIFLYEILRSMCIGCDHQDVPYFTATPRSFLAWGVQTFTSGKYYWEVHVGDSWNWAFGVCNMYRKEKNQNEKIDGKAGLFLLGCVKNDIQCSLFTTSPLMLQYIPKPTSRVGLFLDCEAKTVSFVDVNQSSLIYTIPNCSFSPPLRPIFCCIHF

[1] = biological target: TRIM15 RING domain (residues 2-80) (human) (UniProt Q9C019); experiment: SEC-MALS; SEC-MALLS; Superdex 200 Increase 10/300; 120 µl sample at 1–6 mg/ml; 50 mM HEPES pH 7.5, 150 mM NaCl, 0.5 mM TCEP, 3 mM NaN3; 0.5 ml/min; both purified

B1: GFP-TRIM51 (protein, UniProt Q9BSJ1 1-452)
chain: MNSGILQVFQRALTCPICMNYFLDPVTIDCGHSFCRPCLYLNWQDTAVLAQCSECKKTTRQRNLNTDICLKNMAFIARKASLRQFLSSEEQICGMHRETKKMFCEVDKSLLCLPCSNSQEHRNHIHCPIEWAAEERREELLKKMQSLWEKACENLRNLNMETTRTRCWKDYVSLRIEAIRAEYQKMPAFLHEEEQHHLERLRKEGEDIFQQLNESKARMEHSRELLRGMYEDLKQMCHKADVELLQAFGDILHRYESLLLQVSEPVNPELSAGPITGLLDSLSGFRVDFTLQPERANSHIFLCGDLRSMNVGCDPQDDPDITGKSECFLVWGAQAFTSGKYYWEVHMGDSWNWAFGVCNNYWKEKRQNDKIDGEEGLFLLGCVKEDTHCSLFTTSPLVVQYVPRPTSTVGLFLDCEGRTVSFVDVDQSSLIYTIPNCSFSPPLRPIFCCSHF
Question: B1 was tested. Which binding (FLAG-TRIM49 (human)) did it give?
Answer: Its binding is “binds”.

B2: TRIM15 RING domain (residues 2-80) (domain or fragment, UniProt Q9C019 2-80)
chain: PATPSLKVVHELPACTLCAGPLEDAVTIPCGHTFCRLCLPALSQMGAQSSGKILLCPLCQEEEQAETPMAPVPLGPLGE
Question: With B2 as the binder, how does the binding [1] read?
Answer: Its binding is “no binding (tested: 1–6 mg/ml)”.
